According to patent publication US12133900B2, “Synthesis and composition of amino acid linking groups conjugated to compounds used for the targeted imaging of tumors” (Purdue Research Foundation, priority 2013, dated 2024):

Experiment: Dye fluorescence imaged through 1 cm porcine muscle
Settings: 100 nM dye in PBS under 1 cm porcine muscle

**Q.** Which “fluorescent signal through tissue” value does the source give for `CC1(C)C(/C=C/C2=C(Oc3ccc(S(=O)(=O)O)cc3)C(=C/C=C3/N(CCCCS(=O)(=O)O)c4ccc(S(=O)(=O)[O-])cc4C3(C)C)/CCC2)=[N+](CCCCCC(=O)O)c2ccc(S(=O)(=O)O)cc21` [IR800CW] here?
**A.** Its value is “brightest fluorescent signal”.
